Reference: US20240043551A1 (ADLAI NORTYE BIOPHARMA, published 2024)
Results are given in words; binding and its absence hold for the method and conditions named. Some entries that bind do so weakly or less than the wild type.

Sequences of proteins named here, by UniProt entry; tags and fusion partners are left off. A change or cut given only in a name is not applied to a line headed by its entry. A line that says so, or that is headed by a name, gives the form on record, which may keep a tag or linker. Residues count along the entry.
UniProt P20333: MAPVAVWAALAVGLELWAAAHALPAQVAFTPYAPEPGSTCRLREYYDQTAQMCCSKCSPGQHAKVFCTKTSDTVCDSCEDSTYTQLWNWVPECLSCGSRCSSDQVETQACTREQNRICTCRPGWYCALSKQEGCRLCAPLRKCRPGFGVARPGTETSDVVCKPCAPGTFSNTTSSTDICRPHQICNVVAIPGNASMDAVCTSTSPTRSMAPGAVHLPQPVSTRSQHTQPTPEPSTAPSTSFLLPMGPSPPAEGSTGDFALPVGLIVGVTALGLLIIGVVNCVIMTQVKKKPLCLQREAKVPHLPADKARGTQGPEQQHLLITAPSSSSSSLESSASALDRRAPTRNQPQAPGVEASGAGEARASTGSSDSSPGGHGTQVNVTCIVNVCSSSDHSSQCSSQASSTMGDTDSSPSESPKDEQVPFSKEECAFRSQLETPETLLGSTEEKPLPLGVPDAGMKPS
Full length human TNFR2 on Jurkat E6-1 cells (Clone NO.3): residues 23-461 of P20333
His tagged human TNFR2 ECD (Acro Biosystem, TN2-H5227): residues 23-257 of P20333

How the values were obtained:
[1] = biological target: Cynomolgus TNFR2 (Sino Biological, 90102-CO8H) (cynomolgus); test: ELISA, receptor coated at 1 µg/mL, antibody titrated from 5 µg/mL
[2] = biological target: His tagged human TNFR2 ECD (Acro Biosystem, TN2-H5227) (human) (UniProt P20333); test: ELISA, TNFR2-His coated, antibody 0.006 and 0.06 µg/well
[3] = biological target: His tagged human TNFR2 ECD (Acro Biosystem, TN2-H5227) (human) (UniProt P20333); test: ELISA, receptor coated at 1 µg/mL, antibody titrated from 5 µg/mL
[4] = biological target: Full length human TNFR2 on Jurkat E6-1 cells (Clone NO.3) (human) (UniProt P20333); test: FACS on human TNFR2+ Jurkat Clone No.3, biotinylated antibody with streptavidin-PE

| Binder | binding [1] | binding [2] | binding [3] | binding [4] |
| --- | --- | --- | --- | --- |
| TN36-2 (antibody, human IgG1, V domains shown, Humanized; also called AL2/AL8) VH: EVQLVESGGGLIQPGGSLRLSCAASGFSLSSSAVSWVRQAPGKGLEWIGAIGSGGTSYYSNWAKSRFTISRDNSKNTLYLQMNSLRAEDTAVYYCARDPNSSDYPYGAYGMGLWGRGTLVTVSS VL: DIQMTQSPSSLSASVGDRVTITCQVSQSISSYLSWYQQKPGKAPKLLIYYASTLASGVPSRFSGSGSGTDFTLTISSLQPEDFATYYCQQGYITSNVGNAFGGGTKVEIK | binds | – | – | – |
| TN36-18 (antibody, human IgG1, V domains shown, Humanized; also called AL6/AL8) VH: EVQLVESGGGLVQPGGSLRLSCAASGFSLSSSAVSWVRQAPGKGLEWIGAIGSGGTSYYSNWAKSRFTISRDNSKNTLYLQMNSLRAEDTAVYYCARDPNSSDYPYGAYGMGLWGPGTLVTVSS VL: DIQMTQSPSSLSASVGDRVTITCQVSQSISSYLSWYQQKPGKAPKLLIYYASTLASGVPSRFSGSGSGTDFTLTISSLQPEDFATYYCQQGYITSNVGNAFGGGTKVEIK | binds | binds | binds | binds |
| TN36-4 (antibody, human IgG1, V domains shown, Humanized; also called AL2/AL10) VH: EVQLVESGGGLIQPGGSLRLSCAASGFSLSSSAVSWVRQAPGKGLEWIGAIGSGGTSYYSNWAKSRFTISRDNSKNTLYLQMNSLRAEDTAVYYCARDPNSSDYPYGAYGMGLWGRGTLVTVSS VL: DIQMTQSPSFLSASVGDRVTITCQVSQSISSYLSWYQQKPGKAPKLLIYYASTLASGVPSRFSGSGSGTDFTLTISSLQPEDFATYYCQQGYITSNVGNAFGGGTKVEIK | binds | – | – | – |
| TN36-7 (antibody, human IgG1, V domains shown, Humanized; also called AL3/AL9) VH: EVQLVESGGGLIQPGGSLRLSCAASGFSLSSSAVSWVRQAPGKGLEWIGAIGSGGTSYYSNWAKSRFTISRDNSKNTLYLQMNSLRAEDTAVYFCARDPNSSDYPYGAYGMGLWGRGTLVTVSS VL: DIQMTQSPSSLSASVGDRVTITCQVSQSISSYLSWYQQKPGKPPKLLIYYASTLASGVPSRFSGSGSGTDFTLTISSLQPEDFATYYCQQGYITSNVGNAFGGGTKVEIK | binds | – | – | – |
| TN36-9 (antibody, human IgG1, V domains shown, Humanized; also called AL3/AL11) VH: EVQLVESGGGLIQPGGSLRLSCAASGFSLSSSAVSWVRQAPGKGLEWIGAIGSGGTSYYSNWAKSRFTISRDNSKNTLYLQMNSLRAEDTAVYFCARDPNSSDYPYGAYGMGLWGRGTLVTVSS VL: DIQLTQSPSFLSASVGDRVTITCQVSQSISSYLSWYQQKPGKAPKLLIYYASTLASGVPSRFSGSGSGTEFTLTISSLQPEDFATYYCQQGYITSNVGNAFGGGTKVEIK | binds | – | – | – |
| TN36-14 (antibody, human IgG1, V domains shown, Humanized; also called AL5/AL8) VH: EVQLVESGGGLVQPGGSLRLSCAASGFSLSSSAVSWVRQAPGKGLEWIGAIGSGGTSYYSNWAKSRFTISRDNSKNTLYLQMNSLRAEDTAVYYCARDPNSSDYPYGAYGMGLWGQGTLVTVSS VL: DIQMTQSPSSLSASVGDRVTITCQVSQSISSYLSWYQQKPGKAPKLLIYYASTLASGVPSRFSGSGSGTDFTLTISSLQPEDFATYYCQQGYITSNVGNAFGGGTKVEIK | binds | binds | binds | binds |
| TN36-6 (antibody, human IgG1, V domains shown, Humanized; also called AL3/AL8) VH: EVQLVESGGGLIQPGGSLRLSCAASGFSLSSSAVSWVRQAPGKGLEWIGAIGSGGTSYYSNWAKSRFTISRDNSKNTLYLQMNSLRAEDTAVYFCARDPNSSDYPYGAYGMGLWGRGTLVTVSS VL: DIQMTQSPSSLSASVGDRVTITCQVSQSISSYLSWYQQKPGKAPKLLIYYASTLASGVPSRFSGSGSGTDFTLTISSLQPEDFATYYCQQGYITSNVGNAFGGGTKVEIK | binds | – | – | – |
| TN36-15 (antibody, human IgG1, V domains shown, Humanized; also called AL5/AL9) VH: EVQLVESGGGLVQPGGSLRLSCAASGFSLSSSAVSWVRQAPGKGLEWIGAIGSGGTSYYSNWAKSRFTISRDNSKNTLYLQMNSLRAEDTAVYYCARDPNSSDYPYGAYGMGLWGQGTLVTVSS VL: DIQMTQSPSSLSASVGDRVTITCQVSQSISSYLSWYQQKPGKPPKLLIYYASTLASGVPSRFSGSGSGTDFTLTISSLQPEDFATYYCQQGYITSNVGNAFGGGTKVEIK | binds | binds | binds | binds |
| TN36-12 (antibody, human IgG1, V domains shown, Humanized; also called AL4/AL10) VH: EVQLVESGGGLIQPGGSLRLSCAASGFSLSSSAVSWVRQAPGKGLEWIGAIGSGGTSYYSNWAKSRFTISRDTSKNTVYLQMNSLRAEDTAVYFCARDPNSSDYPYGAYGMGLWGPGTLVTVSS VL: DIQMTQSPSFLSASVGDRVTITCQVSQSISSYLSWYQQKPGKAPKLLIYYASTLASGVPSRFSGSGSGTDFTLTISSLQPEDFATYYCQQGYITSNVGNAFGGGTKVEIK | binds | binds | binds | binds |

Next, values leading:

| binding [1] | binding [2] | binding [3] | binding [4] | Binder |
| --- | --- | --- | --- | --- |
| binds | binds | binds | binds | TN36-19 (antibody, human IgG1, V domains shown, Humanized; also called AL6/AL9) VH: EVQLVESGGGLVQPGGSLRLSCAASGFSLSSSAVSWVRQAPGKGLEWIGAIGSGGTSYYSNWAKSRFTISRDNSKNTLYLQMNSLRAEDTAVYYCARDPNSSDYPYGAYGMGLWGPGTLVTVSS VL: DIQMTQSPSSLSASVGDRVTITCQVSQSISSYLSWYQQKPGKPPKLLIYYASTLASGVPSRFSGSGSGTDFTLTISSLQPEDFATYYCQQGYITSNVGNAFGGGTKVEIK |
| binds | – | – | – | TN36-8 (antibody, human IgG1, V domains shown, Humanized; also called AL3/AL10) VH: EVQLVESGGGLIQPGGSLRLSCAASGFSLSSSAVSWVRQAPGKGLEWIGAIGSGGTSYYSNWAKSRFTISRDNSKNTLYLQMNSLRAEDTAVYFCARDPNSSDYPYGAYGMGLWGRGTLVTVSS VL: DIQMTQSPSFLSASVGDRVTITCQVSQSISSYLSWYQQKPGKAPKLLIYYASTLASGVPSRFSGSGSGTDFTLTISSLQPEDFATYYCQQGYITSNVGNAFGGGTKVEIK |
| binds | binds | binds | binds | TN36-11 (antibody, human IgG1, V domains shown, Humanized; also called AL4/AL9) VH: EVQLVESGGGLIQPGGSLRLSCAASGFSLSSSAVSWVRQAPGKGLEWIGAIGSGGTSYYSNWAKSRFTISRDTSKNTVYLQMNSLRAEDTAVYFCARDPNSSDYPYGAYGMGLWGPGTLVTVSS VL: DIQMTQSPSSLSASVGDRVTITCQVSQSISSYLSWYQQKPGKPPKLLIYYASTLASGVPSRFSGSGSGTDFTLTISSLQPEDFATYYCQQGYITSNVGNAFGGGTKVEIK |
| binds | binds | binds | binds | TN36-16 (antibody, human IgG1, V domains shown, Humanized; also called AL5/AL10) VH: EVQLVESGGGLVQPGGSLRLSCAASGFSLSSSAVSWVRQAPGKGLEWIGAIGSGGTSYYSNWAKSRFTISRDNSKNTLYLQMNSLRAEDTAVYYCARDPNSSDYPYGAYGMGLWGQGTLVTVSS VL: DIQMTQSPSFLSASVGDRVTITCQVSQSISSYLSWYQQKPGKAPKLLIYYASTLASGVPSRFSGSGSGTDFTLTISSLQPEDFATYYCQQGYITSNVGNAFGGGTKVEIK |
| binds | – | – | – | TN36-5 (antibody, human IgG1, V domains shown, Humanized; also called AL2/AL11) VH: EVQLVESGGGLIQPGGSLRLSCAASGFSLSSSAVSWVRQAPGKGLEWIGAIGSGGTSYYSNWAKSRFTISRDNSKNTLYLQMNSLRAEDTAVYYCARDPNSSDYPYGAYGMGLWGRGTLVTVSS VL: DIQLTQSPSFLSASVGDRVTITCQVSQSISSYLSWYQQKPGKAPKLLIYYASTLASGVPSRFSGSGSGTEFTLTISSLQPEDFATYYCQQGYITSNVGNAFGGGTKVEIK |
| binds | binds | binds | binds | TN36-17 (antibody, human IgG1, V domains shown, Humanized; also called AL5/AL11) VH: EVQLVESGGGLVQPGGSLRLSCAASGFSLSSSAVSWVRQAPGKGLEWIGAIGSGGTSYYSNWAKSRFTISRDNSKNTLYLQMNSLRAEDTAVYYCARDPNSSDYPYGAYGMGLWGQGTLVTVSS VL: DIQLTQSPSFLSASVGDRVTITCQVSQSISSYLSWYQQKPGKAPKLLIYYASTLASGVPSRFSGSGSGTEFTLTISSLQPEDFATYYCQQGYITSNVGNAFGGGTKVEIK |
| binds | – | – | – | TN36-3 (antibody, human IgG1, V domains shown, Humanized; also called AL2/AL9) VH: EVQLVESGGGLIQPGGSLRLSCAASGFSLSSSAVSWVRQAPGKGLEWIGAIGSGGTSYYSNWAKSRFTISRDNSKNTLYLQMNSLRAEDTAVYYCARDPNSSDYPYGAYGMGLWGRGTLVTVSS VL: DIQMTQSPSSLSASVGDRVTITCQVSQSISSYLSWYQQKPGKPPKLLIYYASTLASGVPSRFSGSGSGTDFTLTISSLQPEDFATYYCQQGYITSNVGNAFGGGTKVEIK |
| binds | binds | binds | binds | TN36-13 (antibody, human IgG1, V domains shown, Humanized; also called AL4/AL11) VH: EVQLVESGGGLIQPGGSLRLSCAASGFSLSSSAVSWVRQAPGKGLEWIGAIGSGGTSYYSNWAKSRFTISRDTSKNTVYLQMNSLRAEDTAVYFCARDPNSSDYPYGAYGMGLWGPGTLVTVSS VL: DIQLTQSPSFLSASVGDRVTITCQVSQSISSYLSWYQQKPGKAPKLLIYYASTLASGVPSRFSGSGSGTEFTLTISSLQPEDFATYYCQQGYITSNVGNAFGGGTKVEIK |
| binds | binds | binds | binds | TN36-10 (antibody, V domains shown, Humanized; also called AL4/AL8) VH: EVQLVESGGGLIQPGGSLRLSCAASGFSLSSSAVSWVRQAPGKGLEWIGAIGSGGTSYYSNWAKSRFTISRDTSKNTVYLQMNSLRAEDTAVYFCARDPNSSDYPYGAYGMGLWGPGTLVTVSS VL: DIQMTQSPSSLSASVGDRVTITCQVSQSISSYLSWYQQKPGKAPKLLIYYASTLASGVPSRFSGSGSGTDFTLTISSLQPEDFATYYCQQGYITSNVGNAFGGGTKVEIK |
